In US11420994B2, “Carbon-monoxide-releasing molecules and therapeutic applications thereof” (GEORGIA STATE UNIVERSITY RESEARCH FOUNDATION, INC., priority 2016, dated 2022):

System: RAW 264.7 cells
Assay: Intracellular CO release, fluorescence imaging
Format: cell-based, mouse
Conditions: 25, 50 μM, 4 hours at 37° C.; blue fluorescence of cyclized product (105, 127) or COP-1 probe (119)

| Compound | CO release in cells |
| --- | --- |
| C#CC(C)(C)OC(=O)C1=C2C(=C(c3ccccc3)C1=O)c1cccc3cccc2c13 [Compound 105] | easily confirmed |
| C#CCOC(=O)C1=C(c2ccccc2)C(c2ccccc2)=C(c2ccccc2)C1=O [Compound 119] | verified |
| C#CCN(c1ccccc1C1=C2C(=C(C(=O)N3CCOCC3)C1=O)c1cccc3cccc2c13)S(C)(=O)=O [Compound 127] | easily confirmed |
